SMILES strings stand for the structures.

Experimental findings from patent publication US20250100977A1, “MERCAPTOPYRIMIDINE COMPOUNDS THAT INHIBIT NONHOMOLOGOUS END JOINING AND METHODS THEREOF” (INDIAN INSTITUTE OF SCIENCE, priority 2021, published 2025) are described below.

This series relates to V(D)J recombination in Nalm6 (pGG49). In words: V(D)J recombination in Nalm6 using pGG49. Type of series: cell-based. Here is the method: Evaluation of efficiency of V(D)J recombination following treatment with SCR116 and SCR132 was carried out as depicted in FIGS. 6(A-C). Tables 4 and 5 summarize the effect of SCR116 (1 and 2 μM) and SCR132 (0.5 and 1 μM) on V(D)J recombination in Nalm6 using pGG49 and pGG51, respectively.

For the compound `Nc1nc(S)nc(O)c1/N=C/c1ccc([N+](=O)[O-])s1` [Compound 16, (E)-6-amino-2-mercapto-5-(((5-nitrothiophen-2-yl)methylene)amino)pyrimidin-4-ol], for the setting “1 μM”, the “Amp (A) colonies” value was 100880 and the CA colonies came to 65. In addition, where the note is “2 μM”, the “Amp (A) colonies” value worked out at 106320 and the CA colonies worked out at 14.
As for `Nc1nc(S)nc(O)c1/N=C/c1sc(Cl)nc1Cl` [Compound 32, (E)-6-amino-5-(((2,4-dichlorothiazol-5-yl)methylene)amino)-2-mercaptopyrimidin-4-ol], for the setting “0.5 μM”, the “Amp (A) colonies” value was determined as 122880 and the CA colonies turned out to be 42. Besides, where the note is “1 μM”, the “Amp (A) colonies” value was 101207 and the CA colonies was determined as 10.
